Results published in patent US20070202547A1, “Methods For Detecting Substances Which Bind To The Amyloid Precursor Protein Or Beta Amyloid Fragments, And Binding Compounds” (priority 2004, published 2007).
At least one structure is not confirmed: it was looked up by name or label, or the drawing left a doubt.

Experiments:
EV-amyloid = molecular target: T1, EV-amyloid (Homo sapiens, UniProt P05067, A673V/D672E); experiment: Antibody binding to EV-amyloid, ALPHA sandwich assay; conditions: result in words
T1 construct: An Aβ variant peptide similar to Aβ 1-40
Description: Compounds interacting with secretase or antibody binding to the Aβ domain of APP (or an APP variant) nay also be expected to interact with Aβ or related amyloidogenic peptides. An Aβ variant peptide similar to Aβ 1-40, but with Glu and Val replacing the N-terminal two amino acids (hereafter referred to as “EV-amyloid”), as described in WO 02/094985 and US 2003/0200555 A1, was used to assess interactions between benzofurans and amyloid peptide. As with full length APP variant in Example 5, masking of antibody binding sites was used to assay the potential interactions.
The assay was carried out as follows:
• 1. A master mix of EV-amyloid peptide in binding buffer was made as follows: 10650 μL 0.1% bovine serum albumin in phosphate buffered saline, 1200 μL 10× Protease Inhibitor cocktail (Roche, cat # 1836153), 30 μL EV amyloid peptide (4 μM in DMSO). • 2. […] Interaction between EV amyloid and antibody was assessed by quantification of the EV amyloid peptide by antibody sandwich assay using ALPHA detection. • 7. […]
The solutions were incubated at room temperature for 1 hour prior to addition to the EV-amyloid binding reaction. • 8. […] The plate was incubated overnight, in the dark, at room temperature, and antibody binding to EV-amyloid was detected via ALPHA Quest.

APP variant = experiment: Antibody-masking ALPHA assay on biotinylated APP variant (Examples 5A/5B); assay type: binding; conditions: antibody to C-terminal region of Aβ (5A) and LN27 to N-terminal region of APP (5B); pH 4.5, 37° C., 1 hour
Procedure: A biotinylated APP variant (400 nM) was combined with Examples 1-3 under assay conditions (50 mM sodium acetate, pH 4.5; 1x Protease Inhibitor cocktail (Roche cat # 1836153); 100 μg/mL bovine serum albumin, 0.2% CHAPS). Incubations with vehicle, including DMSO (compound diluent), and incubations lacking the APP variant were carried out as controls for each experiment. Each mixture was incubated at 37° C. for 1 hour.
Thereafter, 70 μL of each incubation mixture was placed in its own well of a 96-well plate. 5 μL of 1 M Tris-Cl, pH 8.0 was added to each well to neutralize any binding reaction.
In Example 5A, a mixture of ALPHA beads was prepared from
(1) 20 μg/mL streptavidin donor beads;
(2) 20 μg/mL Protein A acceptor beads (from AlphaScreen General IgG (Protein A) Detection Kit Perkin Elmer Life Sciences; 10,000 pts (Part Number 6760617M)), containing 150 ng/mL of a rabbit polyclonal antibody directed against the C-terminal region of Aβ; and
(3) 0.1 % bovine serum albumin.
The beads were combined in a phosphate buffered saline.
In Example 5B, a mixture of ALPHA beads was prepared from […]
The following day, the plates were read using ALPHAQUEST, to measure the degree of binding of the antibodies. […]

For `O=C(O)COc1ccc2c(c1)CC(CCc1ccccc1)O2` (centres unmarked) [Example 3], the “effect on antibody interactions with EV-amyloid” value (EV-amyloid) was “had no effect on antibody interactions with EV-amyloid” and the “interaction with the APP variant near the antibody binding sites” value (APP variant) was “little or no interaction with the APP variant near either antibody binding site”.
